# From publication PMC7819943, “Rice protein-binding microarrays: a tool to detect cis-acting elements near promoter regions in rice”
# Amino acid sequences for entries named in this document (tags omitted).
# UniProt Q0JBA9, entry or part of it: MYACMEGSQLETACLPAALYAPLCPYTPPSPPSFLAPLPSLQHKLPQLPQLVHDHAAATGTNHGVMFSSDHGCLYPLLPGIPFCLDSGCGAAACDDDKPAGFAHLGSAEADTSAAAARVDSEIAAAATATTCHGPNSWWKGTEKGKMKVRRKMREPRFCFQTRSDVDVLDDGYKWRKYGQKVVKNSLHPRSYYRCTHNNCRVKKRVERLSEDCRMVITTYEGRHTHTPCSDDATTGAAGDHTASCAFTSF
# The list shows a part of the results.
# Molecular target: OsWRKY34 (Oryza sativa, UniProt Q0JBA9 1-250)
# Test: protein-binding microarray (RPBM); PBS, 2% BSA, 51.3 ng/ul salmon testes DNA, 50 uM zinc acetate, 200 nM TF, 25 C, 1 h; high values mean tight binding
# Conditions: protein: recombinant; tags: N-terminal polyhistidine and DsRed monomer fusion (pET32a); label: CyDye5-dUTP incorporated in the synthesized complementary strand; 3' TTTTT single-stranded linker to array surface; dsDNA, one strand shown
# Method in brief: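 An Axon 4000B scanner gave the binding signal as per-feature fluorescence intensity in arbitrary units. This followed washing of a custom Agilent array that had been incubated for 1 h at 25 °C with 200 nM protein in PBS, 2% BSA, salmon testes DNA and 50 µM zinc acetate. The proteins were transcription factors fused at the N-terminus to polyhistidine and DsRed, expressed in E. coli BL21-CodonPlus and purified on Ni–NTA.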
row,Sequence,binding signal
1,TATGTAGACGACTCGAGTGCTTTTTCCCAACATTCATTCCCGGAGTCACCTAGTGCAG,8180 fluorescence intensity (a.u.)
2,GCCCATTAATTTTAGTCGGTGTGGCTGGTTTGTTCACTGACGGAGTCACCTAGTGCAG,8540 fluorescence intensity (a.u.)
3,TCTATTTTTTGAGACATATGTAGTATTTACCAGCTCTTTTCGGAGTCACCTAGTGCAG,9090 fluorescence intensity (a.u.)
4,AACCCACTTCGCTTTGGATCGGAACACAGCGCGCCCGACACGGAGTCACCTAGTGCAG,9150 fluorescence intensity (a.u.)
5,GATTGTTGGGAAACGAGTTTTCCGCCCGCTTCTCTGGTTTCGGAGTCACCTAGTGCAG,8800 fluorescence intensity (a.u.)
6,ACCGTTGACTGGAACTCGTACGGATACAGCGGGTAGTTGCCGGAGTCACCTAGTGCAG,10300 fluorescence intensity (a.u.)
7,CCGCCCCATCACCATGCCGCCTCGGGCGAGCTCGCCCGCCCGGAGTCACCTAGTGCAG,8700 fluorescence intensity (a.u.)
8,TAATAAGTGAGACCAAATATTGATTGTGTAGTATATATTTCGGAGTCACCTAGTGCAG,8670 fluorescence intensity (a.u.)
9,TGGCCACATCTTTTCTAGCCTTCTAGCTGATATCAACCTCCGGAGTCACCTAGTGCAG,8790 fluorescence intensity (a.u.)
10,CTTCTCGTACAACCCGCTCGATTCTTCGTGTTCGGTTCCACGGAGTCACCTAGTGCAG,11900 fluorescence intensity (a.u.)
11,CGCGGAACGCACGCTACCGCTCCCAAGTCCGAAACCTCCGCGGAGTCACCTAGTGCAG,9050 fluorescence intensity (a.u.)
12,ACATGAGCCCCATATATCAGCGGTCAACTCTTTTTTTCCTCGGAGTCACCTAGTGCAG,10600 fluorescence intensity (a.u.)
13,TTTTCTTTGCAAAGTTTTAGGTATTCCAATATAGGTACTTCGGAGTCACCTAGTGCAG,8680 fluorescence intensity (a.u.)
14,CTGGTGCTAATGTTGATCTGCTGGCCTGCCGCTGCTGCTTCGGAGTCACCTAGTGCAG,8580 fluorescence intensity (a.u.)
15,TTTTAACCTCTTGAAAGTTTTTCTTTGTGTCTATCTCTCTCGGAGTCACCTAGTGCAG,8230 fluorescence intensity (a.u.)
16,GCAATTGGAGGGGATGGAAGAAGATGATTCGCTTTTTTTTCGGAGTCACCTAGTGCAG,9740 fluorescence intensity (a.u.)
17,TGCCAATGCCAGGGTTTTCGTCGGTTTTACATAAATTAACCGGAGTCACCTAGTGCAG,8500 fluorescence intensity (a.u.)
18,ATTTGATCCTCTTTTTTCAACTTTGCTTATTTGACCCTTCCGGAGTCACCTAGTGCAG,11100 fluorescence intensity (a.u.)
19,GCCGCCGCCTCGCTCCCCATGGCGTCCGTACACTCCGGCGCGGAGTCACCTAGTGCAG,10300 fluorescence intensity (a.u.)
20,TATATCACATCCGGTTTTAGATTCGTTTTTTATAGGACGGCGGAGTCACCTAGTGCAG,8050 fluorescence intensity (a.u.)
21,ATCTCAGCCATCCGTTTTTATTAATGACCTAATCTCCAACCGGAGTCACCTAGTGCAG,9090 fluorescence intensity (a.u.)
22,CGGTCGCGGAGTTCACATCCCTCGCCCCGCCGCGGCGAATCGGAGTCACCTAGTGCAG,10200 fluorescence intensity (a.u.)
23,CATGATTTCTCGGGGTCTCGTTCTCGCCGGGTCGTCTCGACGGAGTCACCTAGTGCAG,8780 fluorescence intensity (a.u.)
24,TTGGGATTTGTTGATTGTAGTGTTAAATGTGTGCAATGTGCGGAGTCACCTAGTGCAG,9130 fluorescence intensity (a.u.)
25,TGTACTTTTTCCTTTTGAAGGGGTGGACTTTTCGTACTCGCGGAGTCACCTAGTGCAG,8140 fluorescence intensity (a.u.)
26,TCACTCATCCACACACAGCTCTCTAGCCTCTTGCCACATACGGAGTCACCTAGTGCAG,9600 fluorescence intensity (a.u.)
27,TTTCTCACATTTTCCATCAGTTGAATACTCCCACCCTGAACGGAGTCACCTAGTGCAG,9630 fluorescence intensity (a.u.)

# 4 entries from above, set out differently.
row | Sequence | binding signal
24 | TTGGGATTTGTTGATTGTAGTGTTAAATGTGTGCAATGTGCGGAGTCACCTAGTGCAG | 9130 fluorescence intensity (a.u.)
25 | TGTACTTTTTCCTTTTGAAGGGGTGGACTTTTCGTACTCGCGGAGTCACCTAGTGCAG | 8140 fluorescence intensity (a.u.)
26 | TCACTCATCCACACACAGCTCTCTAGCCTCTTGCCACATACGGAGTCACCTAGTGCAG | 9600 fluorescence intensity (a.u.)
27 | TTTCTCACATTTTCCATCAGTTGAATACTCCCACCCTGAACGGAGTCACCTAGTGCAG | 9630 fluorescence intensity (a.u.)

# Carrying on:

row,Sequence,binding signal
1,TATGATCCCTGATCTCGTATCGGCATGGTCCCACGATTCCCGGAGTCACCTAGTGCAG,9330 fluorescence intensity (a.u.)
2,CCCCACTCCCAACCCATCTCCACCGTCCGTCCGATGCCTCCGGAGTCACCTAGTGCAG,9600 fluorescence intensity (a.u.)
3,GTTTCCGATGATAACATCACACCACCATTTTCCGATGATACGGAGTCACCTAGTGCAG,8980 fluorescence intensity (a.u.)
4,CGACTAGCGTACGTCTCATCTCATCGGATTGTCCTGTTTGCGGAGTCACCTAGTGCAG,8520 fluorescence intensity (a.u.)
5,ACTTTGGTATCATCATGTTGCCATATTTCGACTTCTAGCACGGAGTCACCTAGTGCAG,8110 fluorescence intensity (a.u.)
6,TTCTATTGGAAACGTTTAGCTATTTGGTTATCATTATTGTCGGAGTCACCTAGTGCAG,10600 fluorescence intensity (a.u.)
7,TTTTCGTCCGTATTATTCTGTTTCCGGTTTTCCAATATTTCGGAGTCACCTAGTGCAG,11300 fluorescence intensity (a.u.)
8,TCCTCTCCTCGCCACGCGCGCGCGCCAACGCCACCACCACCGGAGTCACCTAGTGCAG,8610 fluorescence intensity (a.u.)
9,TTTGGCTTTTGTCACATGAATATTATTCACTGCCTCCGCGCGGAGTCACCTAGTGCAG,8990 fluorescence intensity (a.u.)
10,TACTGCGTTTGCTTGTTCGATCCATCCATCCATCCATTTCCGGAGTCACCTAGTGCAG,9230 fluorescence intensity (a.u.)
11,CTGGTGACCTGTCGATCGAGTCCGCTGTTCTTGGTCAATCCGGAGTCACCTAGTGCAG,10900 fluorescence intensity (a.u.)
12,TGTTTTATTGTTTTGTTTTTATATTTTGTTTTTAGTGTCACGGAGTCACCTAGTGCAG,8750 fluorescence intensity (a.u.)
13,CTTCGCGTTGATTTTTTTTTCAGTGGCTGTATTTATTCGTCGGAGTCACCTAGTGCAG,9810 fluorescence intensity (a.u.)
14,TCCGCGCTCCGCCTCTTCGCCGCCATGCCCCGCCGCAACGCGGAGTCACCTAGTGCAG,9570 fluorescence intensity (a.u.)
15,TTGGCCGTTTTCATGACCCATTCTGTAACTTTTATCTGACCGGAGTCACCTAGTGCAG,10600 fluorescence intensity (a.u.)
16,CGTCCGAAACCTTGGCCAACCCCTAAGTAAATCTGTTATTCGGAGTCACCTAGTGCAG,8090 fluorescence intensity (a.u.)
17,GTTTCGGGAAGGGGAGGCAGAACGCAAGAAAGAAGGAAATCGGAGTCACCTAGTGCAG,9510 fluorescence intensity (a.u.)
18,CTCCATACTGCACCGTTTTTTGTAAATTTTTTTTGCTGCTCGGAGTCACCTAGTGCAG,8210 fluorescence intensity (a.u.)
19,GGATTTCAGGACGCACTTCTCCGGCCAGAGGAGCCTCATCCGGAGTCACCTAGTGCAG,9370 fluorescence intensity (a.u.)
20,GCAGTACACTGATACGATACAATCGTTGACTGTTTCAGGACGGAGTCACCTAGTGCAG,9230 fluorescence intensity (a.u.)
21,CATTTGTCTTGCAGTTCTTGCGGCTGGGCTCAAAGTTTTACGGAGTCACCTAGTGCAG,8310 fluorescence intensity (a.u.)
22,ACGCATCCTCCTCGCCGGCCTTCTCCGCGCAGCGTGCTTCCGGAGTCACCTAGTGCAG,8050 fluorescence intensity (a.u.)
23,TCTGCTGATCCTGTCGTCTTCCTCGTACCCTCTCTGCTGCCGGAGTCACCTAGTGCAG,10400 fluorescence intensity (a.u.)
24,CAAACACACTGCTGACTGCTGATGTCCTTCTGTTGCATTGCGGAGTCACCTAGTGCAG,9420 fluorescence intensity (a.u.)
25,TAGCTCCAGTCCCATATACACCACAACGTTCACATCGTCGCGGAGTCACCTAGTGCAG,8140 fluorescence intensity (a.u.)
26,TGTCCAGTCGTCACCCTGCTGCTTCCCTGCCACTGCCCTACGGAGTCACCTAGTGCAG,17000 fluorescence intensity (a.u.)
27,ATCGGCTTTGACTCTGGCTTTGAATCCGGCCCACGGCCTTCGGAGTCACCTAGTGCAG,9460 fluorescence intensity (a.u.)
